One test addresses T1, Flag-USP47 (UniProt Q96K76).
T1 sequence: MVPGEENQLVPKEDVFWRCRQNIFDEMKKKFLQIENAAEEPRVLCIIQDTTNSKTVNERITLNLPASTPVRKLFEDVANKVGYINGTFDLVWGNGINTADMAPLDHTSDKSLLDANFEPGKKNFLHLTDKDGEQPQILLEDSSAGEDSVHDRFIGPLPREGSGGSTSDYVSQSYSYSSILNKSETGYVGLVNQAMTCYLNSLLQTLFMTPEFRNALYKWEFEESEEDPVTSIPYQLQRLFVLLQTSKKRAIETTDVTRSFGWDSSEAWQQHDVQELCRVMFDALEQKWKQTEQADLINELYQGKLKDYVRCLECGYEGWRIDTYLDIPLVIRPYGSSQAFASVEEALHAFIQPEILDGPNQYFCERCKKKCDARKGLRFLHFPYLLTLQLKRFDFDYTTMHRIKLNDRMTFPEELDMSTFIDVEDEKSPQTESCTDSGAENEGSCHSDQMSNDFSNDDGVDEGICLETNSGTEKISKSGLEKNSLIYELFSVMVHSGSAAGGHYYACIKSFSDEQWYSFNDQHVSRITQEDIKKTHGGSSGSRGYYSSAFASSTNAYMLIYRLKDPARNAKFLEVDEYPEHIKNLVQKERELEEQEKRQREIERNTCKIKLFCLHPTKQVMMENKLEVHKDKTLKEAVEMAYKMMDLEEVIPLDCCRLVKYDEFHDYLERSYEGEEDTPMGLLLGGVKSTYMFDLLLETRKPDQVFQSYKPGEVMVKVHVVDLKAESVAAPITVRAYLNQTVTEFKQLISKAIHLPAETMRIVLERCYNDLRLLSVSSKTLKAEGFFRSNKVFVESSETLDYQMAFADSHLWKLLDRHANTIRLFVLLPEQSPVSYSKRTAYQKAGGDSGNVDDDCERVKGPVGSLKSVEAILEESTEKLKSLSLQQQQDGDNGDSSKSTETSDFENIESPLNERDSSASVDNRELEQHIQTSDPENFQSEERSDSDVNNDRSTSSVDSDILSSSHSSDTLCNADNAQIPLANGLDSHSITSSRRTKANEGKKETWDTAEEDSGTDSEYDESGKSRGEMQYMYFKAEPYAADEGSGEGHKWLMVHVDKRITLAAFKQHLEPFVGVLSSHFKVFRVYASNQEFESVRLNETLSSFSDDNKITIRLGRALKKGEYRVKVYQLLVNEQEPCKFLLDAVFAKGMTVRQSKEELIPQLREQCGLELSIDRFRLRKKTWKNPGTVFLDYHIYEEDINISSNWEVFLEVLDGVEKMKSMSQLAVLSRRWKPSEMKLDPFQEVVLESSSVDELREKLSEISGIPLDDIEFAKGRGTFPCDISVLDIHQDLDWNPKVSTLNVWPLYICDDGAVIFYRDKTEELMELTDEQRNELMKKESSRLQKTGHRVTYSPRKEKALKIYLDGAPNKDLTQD
Briefly: co-IP; Flag-USP47 with GFP-YB-1 or GFP-YB-1-mu transfected in HEK293T; IP with anti-Flag antibody, western blot with anti-GFP antibody. In general terms: In western blotting, separated proteins are transferred to a membrane and probed.

Amino acid sequences for entries named in this document (tags omitted).
UniProt P67809: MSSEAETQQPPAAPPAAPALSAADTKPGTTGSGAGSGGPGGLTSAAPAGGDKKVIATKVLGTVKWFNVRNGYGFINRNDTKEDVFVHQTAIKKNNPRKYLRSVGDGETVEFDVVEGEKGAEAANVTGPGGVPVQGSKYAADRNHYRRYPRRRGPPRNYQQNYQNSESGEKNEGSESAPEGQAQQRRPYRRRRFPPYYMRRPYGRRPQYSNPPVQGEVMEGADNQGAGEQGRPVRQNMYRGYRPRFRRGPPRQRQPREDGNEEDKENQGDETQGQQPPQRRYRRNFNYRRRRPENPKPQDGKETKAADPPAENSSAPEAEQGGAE

Test [1] deals with T2, ubiquitin-specific peptidase 47 (USP47), endogenous (human (endogenous in K562 and primary CML cells)) (UniProt Q96K76).
T2 sequence: T1 sequence
Description: co-IP; endogenous proteins; whole-cell extracts of K562 and primary CML cells, antibody overnight at 4 °C, protein A&G beads, washed three times with PBS, western blot.

The target of a further test is GFP-YB-1 full length (UniProt P67809). Description: co-IP; GFP-YB-1 (full length or deletion constructs) co-transfected with Flag-USP47 in HEK293T; IP with anti-GFP antibody, western blot with anti-Flag antibody.

These are yes or no findings as the source states them, for the method shown. Binding seen in cells or lysates may run through a third protein. Some binding calls cover weakened binding; strength is not graded here. For part of these data: Tags and fused reporters may be left off the sequences shown.

Turning to “GFP-YB-1 full length (from UniProt P67809 1-324)”, the binding entry with Flag-USP47 is “binds”.
In the case of “Y-box binding protein 1 (YB-1), endogenous (from UniProt P67809 1-324)”, the binding entry in test [1] is given as “binds”.

B1: Flag-USP47 (enzyme, UniProt Q96K76 1-1375)
chain: T1 sequence
With B1, in the test with GFP-YB-1 full length, the binding result is given as “binds”.

(Values after article PMC7782553.)
